No constants are given. Whether binding was seen depends on the method and setting. In cells and extracts the contact can be indirect. Some binding calls cover weakened binding; strength is not graded here. Tags and fused reporters may be left off the sequences shown.
Target: T1, mini-Cubn-Myc (Drosophila melanogaster) (UniProt Q9W332)
T1 sequence: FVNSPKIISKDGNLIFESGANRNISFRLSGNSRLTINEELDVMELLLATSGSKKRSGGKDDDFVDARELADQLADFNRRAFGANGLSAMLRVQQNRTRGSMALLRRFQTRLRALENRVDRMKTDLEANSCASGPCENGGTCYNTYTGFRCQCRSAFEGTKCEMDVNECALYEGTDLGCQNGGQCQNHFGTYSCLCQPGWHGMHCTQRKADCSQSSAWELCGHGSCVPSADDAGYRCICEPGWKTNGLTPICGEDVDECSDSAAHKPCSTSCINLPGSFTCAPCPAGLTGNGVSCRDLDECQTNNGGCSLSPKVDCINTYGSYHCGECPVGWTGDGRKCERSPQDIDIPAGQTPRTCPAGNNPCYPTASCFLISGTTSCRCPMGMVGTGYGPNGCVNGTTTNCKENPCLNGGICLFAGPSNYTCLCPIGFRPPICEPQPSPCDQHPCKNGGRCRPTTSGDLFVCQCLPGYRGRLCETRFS
Experiment: co-IP; lysate of 80 salivary glands co-expressing mini-Cubn2-HA, mini-Cubn-Myc and Amnionless-V5; mouse anti-Myc on Protein G Dynabeads, overnight at 4°C; lysis buffer 150 mM NaCl, 50 mM Tris-HCl pH 7.5, 1 mM EDTA, 1% Triton X-100, 1 mM DTT; three washes; blots with anti-HA, anti-V5, anti-Myc; control with unspecific rabbit IgGs

binding: binds
B1: Amnionless-V5 (protein, UniProt Q9VPN2 21-505)
chain: TKWYGGGMDFNDPTAWLDDHLPCAQDLVVFPEYYPALLPLPEDISIDGLVFPREGAILLAEESTITFGSDKQPSCESDENKAYLKPPKSSKWFDPGTWTDKSKEFSTFTPELERIPCDDEQVIIKGHGPLAFDLENVQYLRLGQLILAGSSISKTYLEQLISRDLGQFLFYNAEYVQVEYYRGELCGCHKDFERLLEPVCHNVQEQCETPHCLSPVRPLGSCCLICGAILSTPTTHCTEGSRKELVAQISNLISQESLKDQIGLHVEFVGSQKFGNCLQAVVTDRHKYSERSLEFLQQNEHNWNKTGTTLKVSGRPYNPNVSFSSIVLILFCMALVGLVSVVILAHFMPENPYLNRIPQWIHDPRLWRWRHLGLRLRRNLLFNRFDNGGAEGGSSEGGASGVDRLGIMAYDPESGEVRERAFDNPMFEQGGALEEAAKESQEQDEILSVPKMETGDLDARSVVDEQELTEINLETCEADTDEETI
